Assay results as given in publication doi:10.1101/829416.
No constants are given. Whether binding was seen depends on the method and setting. In cells and extracts the contact can be indirect. A yes stands for co-enrichment or nearness to the bait. Other partners may have been found. Tags and fused reporters may be left off the sequences shown. Blank lines part the entries; values can stand above or below the molecule they belong to.

The chains behind the UniProt entries cited, without tags or fusion partners.
UniProt Q9SJL8: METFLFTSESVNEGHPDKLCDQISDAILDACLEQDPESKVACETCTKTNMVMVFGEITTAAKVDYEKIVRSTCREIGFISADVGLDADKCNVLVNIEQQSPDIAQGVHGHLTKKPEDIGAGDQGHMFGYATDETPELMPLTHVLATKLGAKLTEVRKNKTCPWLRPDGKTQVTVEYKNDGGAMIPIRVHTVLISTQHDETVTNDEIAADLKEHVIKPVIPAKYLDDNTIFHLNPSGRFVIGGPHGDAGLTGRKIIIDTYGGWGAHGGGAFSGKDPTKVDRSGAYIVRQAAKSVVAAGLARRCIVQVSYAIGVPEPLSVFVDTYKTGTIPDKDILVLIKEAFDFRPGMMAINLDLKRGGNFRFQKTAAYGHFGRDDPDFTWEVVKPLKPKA

Target: T1, BIN4/MID-YFP (YFP-tagged BIN4/MID in the mid-1 35S:BIN4/MID-YFP line) (Arabidopsis thaliana) (UniProt Q9FLU1)
T1 sequence: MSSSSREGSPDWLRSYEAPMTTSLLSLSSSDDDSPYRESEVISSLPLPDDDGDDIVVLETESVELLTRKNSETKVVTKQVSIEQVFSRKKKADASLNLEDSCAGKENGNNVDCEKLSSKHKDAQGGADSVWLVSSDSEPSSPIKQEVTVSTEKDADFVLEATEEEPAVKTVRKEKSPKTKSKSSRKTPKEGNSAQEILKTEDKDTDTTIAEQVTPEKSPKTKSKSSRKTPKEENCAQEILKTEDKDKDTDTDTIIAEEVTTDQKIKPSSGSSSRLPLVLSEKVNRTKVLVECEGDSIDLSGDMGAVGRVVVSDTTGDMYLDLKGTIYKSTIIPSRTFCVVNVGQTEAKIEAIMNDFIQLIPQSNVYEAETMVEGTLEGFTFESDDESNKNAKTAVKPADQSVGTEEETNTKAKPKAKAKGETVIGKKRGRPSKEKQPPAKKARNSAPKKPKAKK
Assay: affinity purification with mass spectrometry

- binding: binds
Molecule: Methionine Adenosyltransferase 3 (MAT3), endogenous (from UniProt Q9SJL8 1-390) (enzyme)

- binding: binds
B1: RHL1 (ROOT HAIRLESS 1), endogenous (protein, UniProt O81242 1-355)
chain: MVRASSSKKGGSKGGDKDDAESKQRKRLKTLALDNQLLSDSPAKSHSSLKPSKQVLKHHGTDIIRKSQRKNRFLFSFPGLLAPISAATIGDLDRLSTKNPVLYLNFPQGRMKLFGTILYPKNRYLTLQFSRGGKNVLCDDYFDNMIVFSESWWIGTKEENPEEARLDFPKELAQAENTEFDFQGGAGGAASVKKLASPEIGSQPTETDSPEVDNEDVLSEDGEFLDDKIQVTPPVQLTPPVQVTPVRQSQRNSGKKFNFAETSSEASSGESEGNTSDEDEKPLLEPESSTRSREESQDGNGITASASKLPEELPAKREKLKSKDSKLVQATLSNLFKKAEEKTAGTSKAKSSSKA

- binding: binds
B2: TOP6B (Topoisomerase VI B subunit), endogenous (protein, UniProt Q9C5V6 1-670)
chain: MAGDDLVETKKGSSKNSKDSNESKLKQKSPAEFFAENKNIAGFDNPGKSLYTTVRELVENALDSAESISELPEVEVTIEEIVKSKFNSMIGLIDRERVDTQLYDDYETEKARGKRLAKEARASEIQAKNLASGKKNKEPGVSKVLKARGEASYYKVTCKDNGKGMPHDDIPNMFGRVLSGTKYGLKQTRGKFGLGAKMALIWSKMSTGLPIEISSSMKSQNYVTFCRLDIDIHRNIPHIHLHEKKGNKEKWHGAEIQVVIEGNWTTYRSKILHYMRQMAVITPYAQFLFRFISETPEKNVTIKFTRRTDVMPPIPIETKHHPSSVDLLLIKRLITDTSKKTLLQFLQNEFVNINKTLAARLIGEMGPDFGPSMAVKSVTSQQMVRIHQLFRQAKFDDPSGDCLSPAGEYNLRLGIIKELHPDMVATYSGSAQVFEGHPFIVEAGVSLGGRDVKQGINIFRFANRIPLLFEQGADVVTRTALKRINWNSYKINQTQDKIGVFVSIVSTKIPFKGTGKEYIGDDISEIATAVKSAIQQCCIQLKSKIVKRLQAREQQERKRSLSRYIPDATGAVYEVLKQMTEEHKTKRKRYGEEDIVMLDKVSKQIITKETLKEKLAEHVEQVDYEMALEYATQSGVSEEPRENIYLQHLDPNKSNFIDLHSPTFVFRLML
